According to patent US10188617B2, “Modulation of cellular DNA repair activity to intercept malignancy” (THE BOARD OF TRUSTEES OF THE LELAND STANFORD JUNIOR …, priority 2013, dated 2019):

Tested on: BER of ODD in SUM149PT cells
Experiment: High-throughput chemical screen with cell-based DNA repair assay (oxidatively damaged GFP reporter, host-cell reactivation);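 further: SUM149PT cells pretreated 24 h with compound, then given photodynamically oxidized adenoviral GFP reporter, 24 h host-cell reactivation, GFP read as repair, undamaged reporter positive and damaged reporter negative control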
Settings: read-out: EC50 (image analysis); dose-response increase in GFP expression by imaging; 20 μM to 0.3 μM two-fold dilutions

Compound: Clc1ccccc1C(c1ccccc1)(c1ccccc1)n1ccnc1 [Clotrimazole]
- EC50: 20.8 µM
